Values joined by “and” are separate entries in the source; they are usually repeats but may differ in a detail not shown here. Equal entries are not always repeated. The list shows a part of the results. Single wells; the ratio to wells without odorant was worked out here, and repeats agree poorly.

One assay concerns OR3A3 clone 1549. As to the kind of experiment: odorant receptor activation (CRE luciferase / Renilla) (fold of no-odor wells); higher = more activation. Conditions: 100 µM.
Turning to `CCCCCCCOC(C)=O` [heptyl acetate], the odorant receptor activation stood at 0.696.

The compound `COc1ccccc1O` [guaiacol] showed an odorant receptor activation of 0.621.

`C=C(C)C1CCC2=CC(=O)CC(C)C2(C)C1` (configuration not stated) [amyl laurate] gave an odorant receptor activation of 1.44.

In turn, `CC(=O)OCC=C(C)CCC=C(C)C` [geranyl acetate] came in with an odorant receptor activation of 1.27.

In turn, `CC(=O)OC1CC2CCC1(C)C2(C)C` (configuration not stated) [isobornyl acetate] yielded an odorant receptor activation of 0.889.

As for `CCCCCOC(C)=O` [n-amyl acetate], the odorant receptor activation worked out at 1.04.

For `CCCCCCOC(=O)CCC` [hexyl butyrate], the odorant receptor activation was found to be 0.72.

Compound `CCC1(O)C2(C)CCC(C2)C1(C)C` (configuration not stated) [2-ethylfenchol] came in with an odorant receptor activation of 0.63.

The compound `C=C(C)C1CC=CCC1` (configuration not stated) [r-limonene] gave an odorant receptor activation of 1.12.

As for `CC1COCc2cc3c(cc21)C(C)(C)C(C)C3(C)C` (configuration not stated) [galaxolide], the odorant receptor activation was 1.44 and 2.03.

The compound `CCCCCCC=O` [heptaldehyde] displayed an odorant receptor activation of 0.711.

For the compound `CC(C)CC(=O)O` [isovaleric acid], the odorant receptor activation stood at 0.878.

As for `CC(C)(O)CCCC1=CCC(C=O)CC1` (configuration not stated) [lyral], the odorant receptor activation was 0.802.

`O=C1CCCCCCCCCCCCCCO1` [pentadecalactone]: the odorant receptor activation turned out to be 0.863.

`CCCCCC(=O)O` [caproic acid] gave an odorant receptor activation of 0.943.

With `CCCCCCCCCCC=O` [undecanal], the odorant receptor activation came out at 0.731.

For `C=CCc1ccc(O)c(OC)c1` [eugenol], the odorant receptor activation came to 1.14.

For the compound `CCCCCCCC=CC=O` [2-decenal], the odorant receptor activation worked out at 1.22.

With `CC(C)C=O` [isobutyraldehyde], the odorant receptor activation was determined as 0.683.

Compound `c1cnccn1` [pyrazine] gave an odorant receptor activation of 1.

`CC(C)C(=O)O` [isobutyric acid] displayed an odorant receptor activation of 0.789.

The test system of a further assay is OR3A4 I42V/S86R/E103Q/I120V/P168T/N175S clone 1550. Described as above. Conditions: 100 µM.
Compound `CCCCCCCOC(C)=O` [heptyl acetate] registered an odorant receptor activation of 0.642.

The compound `COc1ccccc1O` [guaiacol] registered an odorant receptor activation of 0.731.

For `C=C(C)C1CCC2=CC(=O)CC(C)C2(C)C1` (configuration not stated) [amyl laurate], the odorant receptor activation worked out at 2.23.

Compound `CC(=O)OCC=C(C)CCC=C(C)C` [geranyl acetate] came in with an odorant receptor activation of 1.01.

The compound `CC(=O)OC1CC2CCC1(C)C2(C)C` (configuration not stated) [isobornyl acetate] showed an odorant receptor activation of 0.773.

`CCCCCOC(C)=O` [n-amyl acetate] showed an odorant receptor activation of 0.979.

The compound `CCCCCCOC(=O)CCC` [hexyl butyrate] returned an odorant receptor activation of 0.839.

Compound `CCC1(O)C2(C)CCC(C2)C1(C)C` (configuration not stated) [2-ethylfenchol] displayed an odorant receptor activation of 0.653.

For `C=C(C)C1CC=CCC1` (configuration not stated) [r-limonene], the odorant receptor activation was 0.971.

Take `CC1COCc2cc3c(cc21)C(C)(C)C(C)C3(C)C` (configuration not stated) [galaxolide]: the odorant receptor activation was 0.359 and 0.977.

For the compound `CCCCCCC=O` [heptaldehyde], the odorant receptor activation was found to be 0.805.

Turning to `CC(C)CC(=O)O` [isovaleric acid], the odorant receptor activation was determined as 0.941.

`CC(C)(O)CCCC1=CCC(C=O)CC1` (configuration not stated) [lyral] yielded an odorant receptor activation of 0.983.

`O=C1CCCCCCCCCCCCCCO1` [pentadecalactone] displayed an odorant receptor activation of 0.824.

In turn, `CCCCCC(=O)O` [caproic acid] came in with an odorant receptor activation of 0.917.

`CCCCCCCCCCC=O` [undecanal] showed an odorant receptor activation of 0.785.

For `C=CCc1ccc(O)c(OC)c1` [eugenol], the odorant receptor activation amounted to 1.05.

Compound `CCCCCCCC=CC=O` [2-decenal] returned an odorant receptor activation of 0.985.

`CC(C)C=O` [isobutyraldehyde] had an odorant receptor activation of 0.708.

The compound `c1cnccn1` [pyrazine] returned an odorant receptor activation of 0.888.

Turning to `CC(C)C(=O)O` [isobutyric acid], the odorant receptor activation is 0.852.

The values above are taken from the odorant receptor screen of Mainland et al. (2015).
